Reference: PubChem BioAssay AID1671195 (Yale University, 2021)
In all, the deposit lists about 22,000 reagents; shown is a part drawn at random. Over the whole deposit, about 1,510 (6.9%) are marked active. 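Active includes knockdowns raising or lowering LDL uptake; positive z-scores mean more uptake, negative mean less.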 Unmarked entries are inactive.

- Test: 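Regulators of LDL receptor activity judged by labelled LDL uptake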 (primary screen)
- Cells: human Huh7 hepatoma cells
- Knock-down reagent: siRNA pool against human genes, 18 nM
- Time to read-out: about 2 to 2.5 days of knockdown, then 8 h LDL uptake
- Challenge: DiI-labelled LDL at 30 µg/ml for 8 h, in lipoprotein-deficient serum medium
- Measured: 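Per-cell DiI-LDL intensity by automated imaging; well means scaled to the plate median and given as a robust z-score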
- Scale: robust z-score: higher = more LDL uptake after knockdown
- Hit rule: 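Active when two or more replicates show a robust z-score above 2 or below -2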

no.	Gene	robust z-score, replicate 1	robust z-score, replicate 2	robust z-score, replicate 3
1	CRTAP	1.41	1.49	0.375
2	PLA2G2C	1.54	1.39	0.797
3	OCA2	0.663	0.263	0.646
4	EFCAB14	-1.17	-0.498	-1.29
5	SLC22A7	-1.02	-1.09	-0.784
6	NUP43	-0.0987	-0.476	-0.146
7	C1orf52	-0.634	0.461	-0.657
8	SLC7A3	-1.35	-1.13	-1.44
9	ARGFX	-0.458	-0.962	-0.781
10	MORC2-AS1	-0.678	-0.997	-0.22
11	ZNF157	2.27 (active)	3.08	1.62
12	LINC00938	-0.0658	-0.372	-0.213
13	CAAP1	0.757	-0.152	-0.15
14	NRG4	-0.408	-0.71	-0.543
15	ISLR	-0.104	-0.822	-0.529
16	SNRPD2	-1.11	-0.875	-1.64
17	IRX4	-1.35	-1.52	-1.72
18	PPFIBP2	-2.16 (active)	-2.02	-2.1
19	LOC389147 (retired record)	-0.271	-0.624	-0.0891
20	CNR2	-0.895	-0.61	-0.295
21	NOC4L	-0.275	-1.01	-0.38
22	HTATSF1P2	-0.606	-1.38	-0.842
23	VCPKMT	2.55 (active)	2.45	2.58
24	GUCA2B	-0.0879	1.61	-0.395
25	FBXO25	4.78	-0.0353	1.01
26	PF4	0.01	-0.0185	0.0053
27	CD48	-0.31	0.0863	-0.247
28	LOC440998 (retired record)	1.61	1.31	1.82
29	ADCK1	3.14 (active)	3.64	3.14

Next part, starting with the last 8 of the part before.
no.	Gene	robust z-score, replicate 1	robust z-score, replicate 2	robust z-score, replicate 3
22	HTATSF1P2	-0.606	-1.38	-0.842
23	VCPKMT	2.55 (active)	2.45	2.58
24	GUCA2B	-0.0879	1.61	-0.395
25	FBXO25	4.78	-0.0353	1.01
26	PF4	0.01	-0.0185	0.0053
27	CD48	-0.31	0.0863	-0.247
28	LOC440998 (retired record)	1.61	1.31	1.82
29	ADCK1	3.14 (active)	3.64	3.14
30	BCR	1.11	1.27	1.37
31	ATXN3	-0.169	-1.53	-0.399
32	LOC440771 (retired record)	-1	-1.26	-0.931
33	RIPOR1	0.116	0.0192	0.294
34	NR1D2	-0.628	-0.0768	0.215
35	ATP5PDP3	1.32	1.62	1.72
36	LOC391295 (retired record)	1.55	1.81	1.67
37	UBL7	0.293	0.344	0.237
38	FGF7P6	-1.2	-0.992	-0.843
39	TSPEAR-AS2	-0.627	0.0313	-0.211
40	LYSMD2	0.251	0.323	0.526
41	MRGPRF	-0.376	-0.359	-0.109
42	TOMM70	3.83 (active)	4.21	4.05
43	FKBP15	1.13	0.905	0.102
44	CLEC12A-AS1	-0.805	-0.588	-0.457
45	IFT122	-1.04	-1.22	-1.13
46	EPPK1	-1.52	-0.6	-1.83
47	LINC00996	-0.388	-0.41	-0.69
48	PDE4A	-1.22	-1.6	-1.33
49	DLC1	0.934	0.898	0.651
50	CLTB	0.962	0.614	0.833
51	PIGG	0.0161	-0.379	-0.661
52	LOC388897 (retired record)	-0.704	-0.684	-0.995
53	FGF9	-0.281	-1.08	-0.89
54	SOX4	0.539	0.396	-0.399
55	LAIR1	0.414	0.57	-0.743
56	JUN	-0.277	0.929	-0.357
57	RAD51AP2	-0.905	-1.11	-1.12
58	LOC440237 (retired record)	-1.65	-1.12	-1.44
59	FFAR1	-0.683	-0.682	-1.15
60	UTP4	-1.68	-1.71	-1.65
61	CCDC187	0.615	0.96	0.999
62	PIAS2	0.668	0.556	0.193
63	REELD1	-1.05	-0.788	-0.895
64	LOC441964 (retired record)	-0.0775	0.618	0.48
65	SYN1	0.35	-0.00837	-0.419
66	MEGF6	0.0388	-0.638	0.23
67	DCAF4L1	0.329	0.481	0.571
68	ZNF701	-2.31 (active)	-1.97	-1.72
